Data source: PubChem BioAssay AID1053208 (Peter MacCallum Cancer Centre, 2014)
In all, the deposit lists about 17,000 reagents; this is a random part of them. 788 of them (4.7%) were called active. 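Calls rest on z-score classes alone; an extra cut-off of viability at most 70% of control was not applied to them.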 Not all columns of the deposit are shown.

Purpose: 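Find knock-downs that sensitise mouse osteosarcoma cells to doxorubicin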 (primary screen)
System: mouse osteosarcoma cells, early-passage culture from an engineered mouse model of fibroblastic bone tumour
Reagent: siRNA pool against mouse genes, 40 nM
Duration: about 120 h (48 h before drug, then 72 h with drug)
Challenge: doxorubicin 100 nM for 72 h, roughly 30-40% inhibitory dose
Measurement: 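Luminescent ATP signal taken as viability with or without 100 nM doxorubicin for 72 h; mean of two wells set against non-targeting siRNA and turned into robust z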
Direction: viability z-score with doxorubicin: higher = more viable cells under doxorubicin; viability z-score without drug: higher = more viable cells with knock-down alone
Call rule: 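a pool counts as active when its viability z-score with doxorubicin is -2 or below and its z-score without drug lies between -2 and 2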

Inmt (indolethylamine N-methyltransferase): combined z-score class = no change with or without drug; viability z-score with doxorubicin = -0.22; viability z-score without drug = -0.51; Outcome = inactive
Isoc1 (isochorismatase domain containing 1): combined z-score class = no change with or without drug; viability z-score with doxorubicin = 0.9; viability z-score without drug = 0.67; Outcome = inactive
Pbrm1 (polybromo 1): combined z-score class = no change with or without drug; viability z-score with doxorubicin = 0.22; viability z-score without drug = -0.51; Outcome = inactive
Ddt (D-dopachrome tautomerase): combined z-score class = no change with or without drug; viability z-score with doxorubicin = 1.24; viability z-score without drug = 0.17; Outcome = inactive
Or4c113 (olfactory receptor family 4 subfamily C member 113): combined z-score class = no change with or without drug; viability z-score with doxorubicin = 0.34; viability z-score without drug = -1.01; Outcome = inactive
Cib1 (calcium and integrin binding 1): combined z-score class = no change with or without drug; viability z-score with doxorubicin = 0; viability z-score without drug = 0; Outcome = inactive
Nudcd3 (NudC domain containing 3): combined z-score class = no change with or without drug; viability z-score with doxorubicin = 0.79; viability z-score without drug = 1.35; Outcome = inactive
Tmem18 (transmembrane protein 18): combined z-score class = no change with or without drug; viability z-score with doxorubicin = 0.67; viability z-score without drug = -0.51; Outcome = inactive
Mterf2 (mitochondrial transcription termination factor 2): combined z-score class = no change with or without drug; viability z-score with doxorubicin = 0.45; viability z-score without drug = -0.17; Outcome = inactive
Bloc1s1 (biogenesis of lysosomal organelles complex-1, subunit 1): combined z-score class = no change with or without drug; viability z-score with doxorubicin = 0.9; viability z-score without drug = -0.34; Outcome = inactive
Opcml (opioid binding protein/cell adhesion molecule-like): combined z-score class = no change with or without drug; viability z-score with doxorubicin = 0.79; viability z-score without drug = 1.52; Outcome = inactive
Msx1 (msh homeobox 1): combined z-score class = no change with or without drug; viability z-score with doxorubicin = 0.56; viability z-score without drug = -0.84; Outcome = inactive
Retreg2 (reticulophagy regulator family member 2): combined z-score class = no change with or without drug; viability z-score with doxorubicin = 0.56; viability z-score without drug = 0.51; Outcome = inactive
Asprv1 (aspartic peptidase, retroviral-like 1): combined z-score class = low cell count with doxorubicin only; viability z-score with doxorubicin = -2.7; viability z-score without drug = 0.67; Outcome = active
Kcnk2 (potassium channel, subfamily K, member 2): combined z-score class = low cell count without drug only; viability z-score with doxorubicin = -1.8; viability z-score without drug = -2.36; Outcome = inactive
Rab39a (RAB39A, member RAS oncogene family): combined z-score class = no change with or without drug; viability z-score with doxorubicin = 0.45; viability z-score without drug = -0.17; Outcome = inactive
Insl5 (insulin-like 5): combined z-score class = high cell count without drug only; viability z-score with doxorubicin = 1.35; viability z-score without drug = 3.04; Outcome = inactive
Spem2 (SPEM family member 2): combined z-score class = no change with or without drug; viability z-score with doxorubicin = -0.45; viability z-score without drug = -1.18; Outcome = inactive
Ilf2 (interleukin enhancer binding factor 2): combined z-score class = no change with or without drug; viability z-score with doxorubicin = 0; viability z-score without drug = -0.84; Outcome = inactive
Tssk4 (testis-specific serine kinase 4): combined z-score class = no change with or without drug; viability z-score with doxorubicin = 1.35; viability z-score without drug = 1.35; Outcome = inactive
Qrfpr (pyroglutamylated RFamide peptide receptor): combined z-score class = no change with or without drug; viability z-score with doxorubicin = 1.01; viability z-score without drug = -0.84; Outcome = inactive
Flna (filamin, alpha): combined z-score class = no change with or without drug; viability z-score with doxorubicin = 0.22; viability z-score without drug = -0.51; Outcome = inactive
Egfl7 (EGF-like domain 7): combined z-score class = no change with or without drug; viability z-score with doxorubicin = -0.9; viability z-score without drug = 1.01; Outcome = inactive
Fam177a (family with sequence similarity 177, member A): combined z-score class = no change with or without drug; viability z-score with doxorubicin = 0.34; viability z-score without drug = 0.17; Outcome = inactive
Aurkb (aurora kinase B): combined z-score class = low cell count without drug only; viability z-score with doxorubicin = -0.11; viability z-score without drug = -3.54; Outcome = inactive
Medag (mesenteric estrogen dependent adipogenesis): combined z-score class = no change with or without drug; viability z-score with doxorubicin = -1.24; viability z-score without drug = -0.34; Outcome = inactive
Havcr2 (hepatitis A virus cellular receptor 2): combined z-score class = no change with or without drug; viability z-score with doxorubicin = 0.45; viability z-score without drug = 0.84; Outcome = inactive
Iqch (IQ motif containing H): combined z-score class = no change with or without drug; viability z-score with doxorubicin = -0.22; viability z-score without drug = -0.34; Outcome = inactive
